Reference: the supplement of paper PMC12889115
This is one part of the list. These are raw signals, not scaled to a control.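 First-pass screen: polymyxin B was added at a level that permeabilizes the Salmonella outer membrane while sparing the inner membrane. DMSO wells, with and without polymyxin B, defined maximum growth. Because plates differed from one another, each plate's data were ranked separately and the compounds with the lowest OD600 were carried forward as hits.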

System: Salmonella enterica serovar Typhimurium SL1344
Test: bacterial growth OD600 after 18 h with compound and polymyxin B; higher = more bacterial growth (less inhibition)
Conditions: 50 µM, Mueller-Hinton broth

SMILES | bacterial growth OD600 (polymyxin B 1 µg/mL) | bacterial growth OD600 (polymyxin B 0.75 µg/mL)
CCOC(=O)C1(Cc2ccc(Cl)cc2)CCN(Cc2nccn2CC)CC1 | 0.943 | 
Cc1c(-c2ccccc2F)[nH]c2ccc(CNC(=O)CCN3CCCC3=O)cc12 | 0.7 | 
CSc1ccc(CN2CC[C@@H](N3CCN(c4ccccc4F)CC3)[C@H](O)C2)cc1 | 0.846 | 
COc1cc(C(=O)NCc2ccncc2C)ccc1OC1CCN(C(C)=O)CC1 | 0.847 | 
Cc1cccc(NC(=O)CCC2CCN(C(=O)C3CCCC3)CC2)c1 | 0.814 | 
CCCc1cc(C(=O)N2CCC3(CC2)c2ccccc2[C@@H](NC(=O)CC)[C@@H]3OC)n(C)n1 |  | 0.906
COc1ccccc1C1c2[nH]c3ccccc3c2CCN1Cc1nc(C)c[nH]1 (stereo not given) | 1.27 | 
Cc1nonc1CC(=O)N1CCc2[nH]nc(-c3ccc(C(F)(F)F)cc3)c2C1 |  | 0.8
Cc1ccccc1Cc1nc2cccnc2n1C1CCN(C(=O)c2ccc3c(c2)OCO3)CC1 |  | 0.848
C=C(C)CNC(=O)c1coc(COc2ccc3c(c2)OCO3)n1 | 0.81 | 
COc1ccccc1C(C)N(C)C(=O)c1cn(Cc2cccc(C(F)(F)F)c2)nn1 (stereo not given) | 0.846 | 
O=C(c1nc[nH]n1)N1CCN(Cc2c[nH]nc2-c2ccc(-c3ccccc3)cc2)CC1 | 0.91 | 
O=C1CCC(CCNCCOc2ccc(F)cc2)N1CCCc1ccccc1 (stereo not given) |  | 0.986
COCCn1cnc2cc(NC(=O)C3CCCCC3)cc(C(=O)N3CCCCC3c3cccnc3)c21 (stereo not given) |  | 0.821
COc1ccc(CNC(=O)CCC2CCCN(Cc3ccco3)C2)c(OC)c1 (stereo not given) |  | 0.783
O=C(c1cccc(OC2CCN(C/C=C/c3ccccc3)CC2)c1)N1CCCC1 |  | 0.716
COC(=O)C1CCCCN1C(=O)c1c(OC)cc(=O)n2c1CCN(Cc1ccc(C)cc1)CC2 (stereo not given) |  | 0.882
COc1ccc(OC)c(CC(=O)N2CCc3c(cnc(C)c3CNC(=O)c3ccsc3)C2)c1 |  | 0.913
COCCC(=O)Nc1ccc2c(c1)CN(C(=O)c1cc3c(s1)CCCCC3)CC2 | 0.002 | 
CCOC(=O)C1(Cc2ccccc2Cl)CCN(C(=O)c2ccc(OC)o2)CC1 | 0.474 | 

Molecules from the list above containing an NH in an aromatic ring:
SMILES | bacterial growth OD600 (polymyxin B 1 µg/mL) | bacterial growth OD600 (polymyxin B 0.75 µg/mL)
Cc1c(-c2ccccc2F)[nH]c2ccc(CNC(=O)CCN3CCCC3=O)cc12 | 0.7 | 
COc1ccccc1C1c2[nH]c3ccccc3c2CCN1Cc1nc(C)c[nH]1 (stereo not given) | 1.27 | 
Cc1nonc1CC(=O)N1CCc2[nH]nc(-c3ccc(C(F)(F)F)cc3)c2C1 |  | 0.8
O=C(c1nc[nH]n1)N1CCN(Cc2c[nH]nc2-c2ccc(-c3ccccc3)cc2)CC1 | 0.91 | 
